Consider 59 molecules from PubChem BioAssay AID2685 (National Center for Advancing Translational Sciences (NCATS), 2010).

Some of the results follow. These are further read-outs of the screen, such as a control signal, another cell line or another target. No call is given for them. Compounds called inactive in the main read-out are mostly missing here. Words in brackets tell the shape of the fitted curve; partial curves, single points and poor fits give uncertain potencies.

A short description of this assay: qHTS Assay for Lipid Storage Modulators in Drosophila S3 Cells.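 On cell number change: cells counted by Cell Tracker Red CMTPX staining in the red channel.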 The note with it: BODIPY lipid droplet fluorescence, 18-24 h; for cell number change: measured here: cell count max response, cells fed with added oleic acid. The essentials:
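Drosophila S3 cells got compounds at several concentrations plus oleic acid (400 uM solution). Laser-scanning cytometry with 488 nm excitation read lipid droplets at 500-530 nm and cells at 575-640 nm. Percent activity was relative to 20 uM Triacsin C.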
(In general: Quantitative high-throughput screening tests each substance at several concentrations.)

The mark [1] stands for this setting: measured here: cell number channel AC50, cells fed with added oleic acid.
[2] abbreviates: measured here: lipid fluorescence (Fed channel) AC50, cells fed with added oleic acid.

The term AC50 denotes the concentration at which the activity in the assay is half-maximal. Regarding `CC(OC(=O)CNC(=O)c1ccc(Cl)c([N+](=O)[O-])c1)C(=O)NC1CCCCC1C` (stereo not given), the cell number change stood at 87.6%. In addition, under setting [1], the AC50 was 16.4 µM [rising, single point].
As for `COc1ccc(C(=O)N2N=C(c3cccs3)CC2c2ccccc2O)cc1` (stereo not given), the cell number change was determined as 23.8%. For the same molecule, the AC50 under setting [2] was 4.61 µM [rising, single point].
With `CC1CCCN(S(=O)(=O)c2ccc3c(c2)CCN3C(=O)C2CCC2)C1` (stereo not given), the cell number change came out at 13.4%.
`O=C(CCSc1nnc(-c2ccncc2)o1)Nc1ccccc1Cl`: the cell number change was 38%. Moreover, the AC50 under setting [1] is 29.1 µM [rising, single point]. For the same molecule, under setting [2], the AC50 is 32.6 µM [rising, single point].
For the molecule `Cc1ccc(/C=C/S(=O)(=O)NCc2ccc(F)cc2)cc1`, the cell number change was -27%. Also, the AC50 under setting [2] is 6.51 µM [rising, partial curve, poor fit].
Turning to `CCc1ccc(CN(C)C(C)C(=O)Nc2ccc(S(=O)(=O)N3CCCC3)cc2)cc1` (stereo not given), the cell number change is -52.9%. Moreover, the AC50 under setting [1] was 18.4 µM [falling, partial curve]. For the same molecule, the AC50 under setting [2] was 5.8 µM [falling, partial curve].
Regarding `CSc1nnc(SCC(=O)N(C)c2c(N)n(Cc3ccccc3)c(=O)[nH]c2=O)s1`, the cell number change turned out to be 8.72%. Under setting [2], the AC50 is 29.1 µM [falling, single point].
Consider `COc1ccc(CN(CC(=O)NCc2ccc3c(c2)OCO3)C(=O)c2csnn2)cc1`, for which the cell number change is 30.4%. Under setting [1], the AC50 is 9.2 µM [rising, partial curve, poor fit].
Consider `CCCS(=O)(=O)N1CCCC(C(=O)NCCCOC(C)C)C1` (stereo not given), for which the cell number change is -7.28%. Further, the AC50 under setting [1] is 0.00517 µM [falling, full curve, poor fit].
As to `Cc1c(CC(=O)N2C[C@H]3C[C@@H](C2)c2cccc(=O)n2C3)c(=O)oc2cc3occ(C(C)(C)C)c3cc12`, the cell number change was -9.06%.
Regarding `O=C(CSCc1ccccc1Br)N/N=C/c1ccc2c(c1)OCO2`, the cell number change was -10.1%.
Consider `CC1(NC(=O)/C=C/c2nc3ccccc3s2)CCS(=O)(=O)C1` (stereo not given), for which the cell number change is -24.8%. Under setting [2], the AC50 was 29.1 µM [falling, single point].
Take `Cc1[nH]nc2c1C1(CCN(C(=O)c3ccccc3)CC1)C(C#N)=C(N)O2`: the cell number change stood at 25.7%. Under setting [1], the AC50 was 0.259 µM [falling, full curve]. The AC50 under setting [2] was 0.731 µM [falling, full curve].
For `O=C(OCc1cc(=O)n2c(n1)sc1ccccc12)c1ccc(O)cc1`, the cell number change came out at 7.29%. Further, the AC50 under setting [2] was 29.1 µM [falling, single point].
With `O=C(Nc1cccc(Cl)c1)c1ccc2c(c1)OCCO2`, the cell number change was found to be 1.8%. For the same molecule, under setting [2], the AC50 is 0.82 µM [falling, full curve].
For the molecule `COc1cscc1C(N)=O`, the cell number change was 31.8%. For the same molecule, the AC50 under setting [1] is 0.259 µM [rising, full curve, poor fit]. Also, the AC50 under setting [2] is 16.4 µM [rising, partial curve, poor fit].
For `COc1ccc(NS(=O)(=O)c2cc(NC(=O)c3ccccc3F)ccc2N2CCCC2)cc1`, the cell number change amounted to 7.26%.
Still for that read-out and setting: under `O=C(N/N=C/c1c(F)cccc1Cl)c1cc(C2CC2)[nH]n1` stands -2.75%.
`O=C(OCc1nnc(-c2ccccc2)o1)c1ccc2c(c1)OCO2`: the cell number change was -18.3%. For the same molecule, under setting [2], the AC50 is 29.1 µM [rising, single point].
Turning to `CN(C)CCN(C(=O)c1ccc(N2C(=O)CCC2=O)cc1)c1nc2cc3c(cc2s1)OCCO3`, the cell number change is 30.4%.
For `CC(=O)N1N=C(c2cccs2)CC1c1ccco1` (stereo not given), the cell number change was 18%. For the same molecule, the AC50 under setting [2] is 0.259 µM [falling, full curve, poor fit].
As to `CN(C)c1ccc(NC(=O)c2ccc(N3CCOCC3)nc2)cc1`, the AC50 under setting [2] was 3.66 µM [rising, full curve].
Regarding `O=C(CSc1ccc(S(=O)(=O)N2CCOCC2)cn1)Nc1ccc(F)c(F)c1`, the cell number change is -25.6%. Moreover, under setting [1], the AC50 was 0.259 µM [falling, full curve, poor fit].
Consider `O=C(COC(=O)CC1CCCC1)Nc1cccc(F)c1`, for which the cell number change is -34.1%. Besides, the AC50 under setting [1] was 29.1 µM [falling, partial curve, poor fit].
In the case of `CCOC(=O)C1CCCN(S(=O)(=O)c2cc(C(=O)OC)n(C)c2)C1` (stereo not given), the cell number change worked out at 5.39%.
On to `COC(=O)c1ccccc1NC(=O)CSc1nc(N)cc(N)n1`, for which the cell number change came out at 31.8%. Also, the AC50 under setting [1] was 32.6 µM [rising, single point]. Moreover, the AC50 under setting [2] was 13 µM [rising, partial curve].
Regarding `O=C(c1cccc(S(=O)(=O)N2CCOCC2)c1)N1CCC(Cc2ccccc2)CC1`, the cell number change is -38.4%. Also, the concentration at half-maximal activity (AC50) under setting [1] was 29.1 µM [falling, single point]. The AC50 under setting [2] is 29.1 µM [falling, single point].
With `COc1ccc(CCNC(=O)C2CCN(S(=O)(=O)c3ccc(C)cc3)CC2)cc1OC`, the cell number change was found to be 1.65%.
Consider `COc1ccc(CN(C)C(=O)Cc2ccc(OC)c(S(=O)(=O)N3CCOCC3)c2)cc1`, for which the cell number change was -21.8%. The AC50 under setting [2] is 0.0411 µM [falling, full curve, poor fit].
With `Cc1cc(C)c(NC(=O)CNC(=O)CN(C)Cc2ccc(Br)s2)c(C)c1`, the cell number change was -0.306%. The AC50 under setting [2] is 29.1 µM [rising, single point].
Consider `COc1ccc2c(Cl)c(C(=O)N/N=C3\CCCC(=O)C3)sc2c1`, for which the AC50 by setting is: under setting [1], 1.03 µM [falling, single point]; under setting [2], 14.6 µM [falling, partial curve].
In the case of `CCN1C/C(=C/c2cccc([N+](=O)[O-])c2)C(=O)/C(=C/c2cccc([N+](=O)[O-])c2)C1`, the cell number change is -25.1%. Besides, the AC50 under setting [2] was 5.17 µM [falling, full curve].
Take `Cc1ccc(-c2nc3ccccc3s2)cc1S(=O)(=O)N1CCOCC1`: the AC50 under setting [1] was 0.517 µM [rising, partial curve, poor fit] and the AC50 under setting [2] is 29.1 µM [rising, single point].
Turning to `Cc1ccc(NC(=O)C(C)c2ccc(-c3ccccc3)c(F)c2)cc1` (stereo not given), the cell number change is -15.5%.
Same read-out and setting: under `O=C(CSc1nnc(-c2ccco2)o1)c1ccccc1` stands -15.9%.
In the case of `Cc1cc(=O)[nH]c(SCc2nc3ccccc3s2)n1`, the cell number change was -34.3%. The AC50 under setting [1] is 14.6 µM [falling, single point]. For the same molecule, the AC50 under setting [2] was 29.1 µM [falling, single point].
With `CC(c1ccccc1)N(NC(=O)C(O)(c1ccccc1)c1ccccc1)C(=O)c1ccccc1` (stereo not given), the cell number change was -51.9%. Further, under setting [1], the AC50 was 11.6 µM [falling, partial curve, poor fit]. Moreover, the AC50 under setting [2] is 11.6 µM [falling, partial curve, poor fit].
Take `COc1ccc(/C=N\NC(=O)COc2ccc(C(C)(C)C)cc2)cc1Cn1nc(C)cc1C`: the cell number change was -60.7%. Moreover, under setting [1], the AC50 is 23.1 µM [falling, single point]. Besides, the AC50 under setting [2] is 29.1 µM [falling, single point].
With `COc1ccc(NC(=O)CSc2cccc3cccnc23)c(OC)c1`, the cell number change is -5.62%. In addition, under setting [2], the AC50 was 1.16 µM [rising, full curve].
Turning to `CCCCn1c(N)c(N(CC(C)C)C(=O)CSCC(=O)Nc2ccc(C)cc2)c(=O)[nH]c1=O`, the cell number change amounted to 29%. Moreover, the AC50 under setting [2] is 6.51 µM [rising, single point].
In the case of `O=c1[nH]cnc2c1sc(=S)n2-c1ccccc1`, the concentration at half-maximal activity (AC50) under setting [1] is 6.51 µM [falling, single point].
Regarding `Cc1ccc2cc(S(=O)(=O)NCCC(=O)O)ccc2c1`, the cell number change is -8.41%. Under setting [2], the AC50 is 0.00517 µM [falling, full curve, poor fit].
As for `COc1ccc2nc(NS(=O)(=O)c3ccc(NC(C)=O)cc3)sc2c1`, the cell number change was -1.18%. Moreover, the AC50 under setting [2] is 0.517 µM [rising, single point].
As for `O=C(O)c1cc2c(cc1NC(=O)c1c(F)cccc1Cl)OCCCO2`, the cell number change amounted to 10.8%. Moreover, under setting [2], the AC50 is 0.116 µM [falling, single point].
In the case of `CCc1cc(-c2nnc(SCC(=O)NC3CC3)n2C)cs1`, the cell number change was found to be 17.2%.
With `O=C1CN(C(=O)c2ccccn2)c2ccccc2N1`, the cell number change was -3.25%. Moreover, under setting [2], the AC50 is 5.17 µM [falling, single point].
Take `CCOC(=O)C1CCCN(C(=O)c2ccc(OCC)cc2)C1` (stereo not given): the cell number change worked out at 7.14%. Besides, under setting [2], the AC50 was 0.0103 µM [falling, full curve, poor fit].
For `O=C(Cc1cccc2ccccc12)N/N=C/c1ccc2cccc(O)c2n1`, the cell number change is -40.8%. Moreover, the AC50 under setting [1] was 29.1 µM [falling, single point]. In addition, the AC50 under setting [2] was 5.17 µM [falling, partial curve].
Take `Cc1ccc(N2C(=O)CC(N3CCN(C4CCc5ccccc5C4)CC3)C2=O)cc1` (stereo not given): the cell number change turned out to be 1.74%. Besides, the AC50 under setting [2] is 0.82 µM [falling, full curve, poor fit].
On to `O=C(NCc1ccccc1F)C1CCCN1C(=O)NCc1ccccc1` (stereo not given), for which the cell number change is -35.1%. Under setting [1], the AC50 was 5.8 µM [falling, partial curve]. Besides, the AC50 under setting [2] is 1.84 µM [falling, partial curve, poor fit].
As for `Cc1cc(=S)[nH]c2c(C)cccc12`, the cell number change is -0.799%.
Take `Cc1c(NC(=O)c2nn3c(C(F)(F)F)cc(-c4ccccc4)nc3c2Br)c(=O)n(-c2ccccc2)n1C`: the AC50 is 1.46 µM [falling, partial curve] under setting [1] and 1.46 µM [falling, full curve, poor fit] under setting [2].
Consider `Cc1cc2ccccn2c1C(=O)c1ccc(F)cc1`, for which the cell number change was found to be 10.9%. Under setting [2], the AC50 is 29.1 µM [rising, single point].
`CCOc1ccccc1NC(=O)N1CCCN(c2ncccc2C#N)CC1`: the cell number change amounted to 18%. The AC50 under setting [2] is 3.66 µM [rising, partial curve, poor fit].
As for `Cn1c(NC(=O)/C=C/c2ccccc2)cc(=O)n(C)c1=O`, the cell number change was 11.1%. Also, under setting [2], the AC50 was 0.0731 µM [rising, full curve, poor fit].
Take `CC(=O)NC(Cc1ccccc1)C(=O)NC1CCN(C(=O)NCc2ccccc2)CC1` (stereo not given): the cell number change is 8.87%. In addition, the AC50 under setting [2] was 1.3 µM [rising, partial curve].
`Cc1ccc(-c2csc(NC(=O)COC(=O)c3cccc(S(=O)(=O)N4CCOCC4)c3)n2)cc1`: the cell number change was -30%. For the same molecule, the AC50 under setting [2] is 5.8 µM [falling, full curve, poor fit].
On to `COc1ccc(-n2ncc3c2CC(C)(C)CC3NC(=O)C2=CC(=O)CC(C)(C)O2)cc1` (stereo not given), for which the cell number change amounted to 17.5%. Besides, the AC50 under setting [2] was 29.1 µM [falling, single point].
For `Cc1nc2ccccc2c2c1C(=O)NC2=O`, the cell number change worked out at 7.97%. Also, under setting [2], the AC50 is 6.51 µM [rising, single point].
